Assay results reported in publication PMC11596155, “When Chirality Makes the Difference: The Case of Novel Enantiopure N-Heterocyclic Carbene–Gold and –Silver Complexes” (Molecules, 2024).

Test system: MCF-10A cells
Assay: MTT assay, cytotoxicity on normal mammary epithelial cells MCF-10A
Assay type: cell-based, human
Experimental: All cell lines used for the reported studies were purchased from the American Type Culture Collection (ATCC, Manassas, VA, USA). Human breast cancer cells MCF-7 and MDA-MB-231 were maintained in Dulbecco’s Modified Eagle Medium/Nutrient Mixture F12 Ham (DMEM/F12) supplemented with 5% fetal bovine serum (FBS), 1% L-glutamine and 100 units/mL of penicillin/streptomycin. Human mammary epithelial cells MCF-10A were cultured in DMEM/F12 medium, supplemented with 5% horse serum (HS), 100 units/mL of penicillin/streptomycin, […], 0.02 µg/mL human epidermal growth factor (EGF), 10 µg/mL insulin and […] [34]. The murine macrophages RAW 264.7 were grown in Dulbecco’s Modified Eagle’s Medium (DMEM) high glucose (4.5 g/L), added with 10% fetal bovine serum (FBS), 1% L-glutamine and 100 units/mL of penicillin/streptomycin. Cells were maintained at 37 °C, in a humidified atmosphere containing 5% CO2.
Cell viability was determined using the 3-(4,5-dimethylthiazol-2-y1)-2,5-diphenyltetrazolium bromide assay (MTT, Sigma-Aldrich, Milan, Italy), as in [35]. Cells were treated for 72 h (anticancer activity) or 24 h (anti-inflammatory activity) at different concentrations and the IC50 values were obtained using GraphPad Prism 9 software (GraphPad Software, La Jolla, CA, USA).

Structure (SMILES)	IC50 MCF-10A fold higher than IC50 MCF-7 (selectivity normal vs MCF-7 cells)	IC50 MCF-10A fold higher than IC50 MDA-MB-231 (selectivity normal vs MDA-MB-231 cells) [fold]	IC50 MCF-10A fold higher than those of the breast cancer cells (selectivity normal vs breast cancer cells (MCF-7, MDA-MB-231)) [fold]
CN1C(Cl)=C(Cl)N(C[C@H](O)c2ccccc2)[CH]1[Au-][Cl] (stereo partly drawn) [(R)-AuL2, (4,5-dichloro-1-((R)-2-hydroxy-2-phenylethyl)-3-methyl-2,3-dihydro-1H-imidazol-2-yl)gold(I) chloride]	about 19 fold	~38	
CN1C(Cl)=C(Cl)N(C[C@@H](O)c2ccccc2)[CH]1[Au-][Cl] (stereo partly drawn) [(S)-AuL2, (4,5-dichloro-1-((S)-2-hydroxy-2-phenylethyl)-3-methyl-2,3-dihydro-1H-imidazol-2-yl)gold(I) chloride]			1.5
